Test results as given in US9686985B2, “Fungicide N-cycloalkyl-N-bicyclicmethylene-carboxamide derivatives” (BAYER INTELLECTUAL PROPERTY GMBH, priority 2012, dated 2017).
Some results were stated once for a whole list of compounds, not compound by compound.

System: Uromyces appendiculatus
Assay: Example G: in vivo preventive test on Uromyces appendiculatus (bean rust)
Settings: summary over doses of 500 ppm and 100 ppm; bean plants
Method: Example G: In Vivo Preventive Test on Uromyces appendiculatus (Bean Rust) […] Bean plants (“Saxa” variety), sown in starter cups on a 50/50 peat soil pozzolana substrate and grown at 24° C., are treated at the 2 leaf stage (9 cm height) by spraying with the active ingredient prepared as described above. Plants, used as controls, are treated with the mixture of acetone/tween/DMSO/water not containing the active material. After 24 hours, the plants are contaminated by spraying the leaves with an aqueous suspension of Uromyces appendiculatus spores (150 000 spores per mL). The spores are collected from infected plants and are suspended in water containing 2.5 mL/L of Tween 80 at 10%. The contaminated bean plants are incubated for 24 hours at 20° C. and at 100% relative humidity, and then for 10 days at 20° C. and at 70-80% relative humidity. Grading (% of efficacy) is carried out 11 days after the contamination, in comparison with the control plants.

For `Cn1nc(C(F)F)c(C(=O)N(CC2CCc3cccc(Cl)c32)C2CC2)c1F` (centres unmarked) [I.14], the protection was “at least 50%”.

In the case of `Cc1cccc2c1CCC2CN(C(=O)c1c(C(F)F)nn(C)c1F)C1CC1` (centres unmarked) [I.3], the protection is reported as “at least 50%”.
